Measured values: patent publication US9233915B2, “Polyunsaturated fatty acid monoglycerides, derivatives, and uses thereof” (SCF PHARMA INC., priority 2007, dated 2016)
Some entries share one result that the patent states for a list of compounds. At least one compound was matched to its structure with a doubt left.

Tests used:
[1] = tested on: A549 human lung cancer cell line; assay: cell growth assay (trypan blue cell count) on A549; format: cell-based; conditions: 3 μM, 48 h
Experimental: (§1) The A549 and HCT-116 cells were maintained in RPMI 1640 or McCoy's 5A (Wisent, St-Bruno, QC, Canada) containing 10% FBS and 10 units/ml penicillin, 100 μg/ml streptomycin. Cells were grown in a 5% CO2 incubator at 37° C. Cells were untreated or treated with SCF compounds
(§2) A predefined number of either A549 or HCT-116 cells were allowed to grow in 24 wells plates (1×10^4 cells/well) for 3 days until cells reached 70% confluence. Then, cells were starved in RPMI or McCoy's 5A medium without FBS for 8 h. Then, the culture medium was replaced with RPMI or McCoy's 5A+0.2% FBS and 3 μM of test compounds were added to each well. Culture media were changed every 24 h and cells were treated for 48 h. After 48, the medium was removed from the culture plates and 0.05% trypsin-EDTA was used to detach the cells from the surface of the culture plates. The harvested cells were counted, both the viable and dead ones, using a Countess Automated Cell Counter (Invitrogen Inc.). Briefly, for each condition an appropriated cell dilution was prepared from the harvested cells and an aliquot was mixed with an equal volume of 0.4% trypan blue, and 10 μl was transferred into each side of a Countess™ chamber slide. All concentrations tested were performed in triplicata and were representative of 5 independent experiments.

[2] = tested on: HCT116 human colon cancer cell line; assay: cell growth assay (trypan blue cell count) on HCT116; format: cell-based; conditions: 3 μM, 48 h
Experimental: as §1, §2

Row | SMILES | growth inhibition of the cancer cells [1] | growth inhibition of the cancer cells [2]
1 | CC/C=C\C/C=C\C/C=C\C/C=C\C/C=C\C/C=C\CCC(=O)NCC(O)CO (centres unmarked) [compound 13] | > 50% | 
2 | CC/C=C\C/C=C\C/C=C\C/C=C\C/C=C\CCCC(=O)NCC(O)CO (centres unmarked) [compound 14] |  | > 50%
